Data reported in paper PMC5650142, “GPR40 partial agonists and AgoPAMs: Differentiating effects on glucose and hormonal secretions in the rodent” (PLoS ONE, 2017).
Several values for one entry are separate records, joined by “and”; a condition that tells them apart may be missing. Equal values may be shown once. Further values from the same series stand in other lists.

Tested on: wild type C57BL/6 and GLP-1R-/- mice
Test: Mouse glucose tolerance test (IPGTT, wild type and GLP-1R-/- mice)
Type: in vivo
Settings: Time 40, individual animals
Protocol: Wild type C57BL/6 mice and GLP-1R^-/- mice were fed a high fat diet (D12492i, Research Diets) for 6 weeks prior to GTT. On the day of study, mice were fasted at 1 h post lights on, and body weights were measured. […] Mice were then dosed PO at a volume of 10 ml/kg with vehicle (0.5% methylcellulose), MK-2305 (a GPR40 partial agonist described in Hauge et al) at 10 mg/kg, or AP1 at 30 mg/kg. Dosages of MK-2305 and AP1 were administered at maximal efficacious doses as determined by acute dose titrations with efficacy determined via reduction in glucose during an IPGTT (data not shown). […] Blood glucose was measured again (time = 0) just prior to an intraperitoneal (IP) dextrose challenge of 1 g/kg at 10 ml/kg dose volume (Dextrose, Hospira Inc., Lake Forrest IL). A subset of vehicle treated mice was injected with 0.9% NaCl saline to serve as negative control. Blood glucose was then measured at 10, 20, 40, 60, and 120 min after challenge. To capture insulin secretion during the IPGTT, blood via tail vein was collected at t = - 60, 0, 10, 20, 40, 60 min post challenge.
Net AUC was calculated by subtracting the average AUC of the saline group from each groups’ total AUC.
Blood for insulin, glucagon, GLP-1, GIP, and PYY measurements was collected into K2EDTA Microtainer tubes (BD, Franklin Lakes, NJ) pre-treated with DPP4 inhibitor (Millipore, Billerica, MA) and cOmplete™ Protease Inhibitor Cocktail Tablets (Roche Diagnostics, Indianapolis, IN). Tubes were centrifuged for 10 minutes at 5000 RPM, and plasma was aliquotted for analysis. Plasma insulin levels were measured via EIA (Mesoscale Discovery ELISA Kit, Gaithersburg MD). Rat plasma total GLP-1 was measured using Total GLP-1 (ver.2) Assay Kit (Cat#: K150JVC). The measurement of active GLP-1 was carried out in a similar manner as that described for total GLP-1 assay with the exception that MSD Active GLP-1 (ver. 2) assay kit (Cat# K150JWC) was used. Rat plasma glucagon was measured using an in-house glucagon assay developed as a MSD format sandwich immunoassay (Merck & Co., Inc., MRL, Kenilworth, NJ USA). The antibody specificity was cross validated via mass- spec using procedures described in Lee et al. Briefly, MSD Streptavidin Gold plates were coated with 2 μg/ml biotin mouse monoclonal antibody generated to glucagon. Test samples were added to the plates and a separate Sulfo- tagged monoclonal antibody was used to detect the captured glucagon protein (2 μg/ml). The ELISA was carried out in the standard reagents in the MSD format. The plate was read on the SECTOR Imager 6000 Reader. Metabolic hormones GIP (Gastric Inhibitory Polypeptide) and PYY (Peptide YY) were measured in rat plasma using the Rat Metabolic Magnetic Bead Panel (EMD Millipore, Billerica, MA). The assay was performed according to manufacturer protocol.

Row | SMILES | Blood Glucose (KO mice, 30 mpk, 30 mg/kg) | Blood Glucose (WT mice, 30 mpk, 30 mg/kg) | Blood Glucose (KO mice, 10 mpk, 10 mg/kg) | Blood Glucose (WT mice, 10 mpk, 10 mg/kg)
1 | COc1ccc(F)c(-c2ccc([C@@H]3CCc4ccc([C@H](C5CC5)[C@H](C)C(=O)O)cc4O3)cc2)c1 [AP1] | 119 mg/dl and 82 mg/dl (2×) and 64 mg/dl and 107 mg/dl | 86 mg/dl (2×) and 72 mg/dl and 98 mg/dl and 110 mg/dl and 94 mg/dl and 100 mg/dl |  | 
2 | O=C1NC(=O)C(C2CCOc3cc(Oc4ccc(C(F)(F)F)cc4Cl)ccc32)S1 (stereo not shown) [MK-2305, reference compound] |  |  | 411 mg/dL and 383 mg/dL and 350 mg/dL and 486 mg/dL | 314 mg/dL and 325 mg/dL and 330 mg/dL and 219 mg/dL and 349 mg/dL and 316 mg/dL and 486 mg/dL
